3 sequences from article PMC12421854 can be followed below.

For series [1], the system named is ForF (Streptomyces formicae). As to the kind of experiment: SPR. To be noted: probe chosen as parent of truncation series, ReDCaT SPR on Biacore 8K+, SA chip, HBS-EP+ buffer (1 mM DTT added for ForJ), protein usually 1000, 100 and 10 nM, temperature not stated, recombinant protein.
For series [2], the target named is T1, ForZ (Streptomyces formicae) (UniProt A0A291QJL1).
T1 sequence (looked up, limits assumed): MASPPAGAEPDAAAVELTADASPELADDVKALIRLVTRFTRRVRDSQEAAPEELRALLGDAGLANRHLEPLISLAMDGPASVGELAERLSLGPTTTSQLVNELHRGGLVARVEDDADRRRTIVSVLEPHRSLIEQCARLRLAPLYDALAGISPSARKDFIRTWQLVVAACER
The series is described as follows: SPR. The settings on record: ReDCaT SPR on Biacore 8K+, SA chip, HBS-EP+ buffer (1 mM DTT added for ForJ), protein usually 1000, 100 and 10 nM, temperature not stated, recombinant protein.

For at least one entry, the source does not settle the construct or the ends of the probe. For some assays here: No signal at the amounts used counts as a negative. For some assays here: Protein sequences can lack the tags named with them. For some assays here: At least one verdict rests on a figure or table, not on a statement of the authors. For some assays here: Whether high values mean tight binding is not given here for every scale.

Consider “AACGGACCAGACGAGCTACCCCGAACGGCGTAGCGAAGGG / CCCTTCGCTACGCCGTTCGGGGTAGCTCGTCTGGTCCGTTCCTACCCTACGTCCTCCTGC [pKY5_0375 probe 7 (=17)]”, for which the binding result in series [1] (one of two KY5_0375 sites) is “binds”.

For “ATTAGCTCGAAGTTCGATGCATCTTGCAGT (double strand) [forZ-forAA inverted repeat probe (Fig. 4; AA_11 in Fig. S3)]”, in series [2] (10 uM fasamycin E (text prints 10 mM), at highest ForZ concentrations), the binding signal (% of normal Rmax) turned out to be 50. For the same sequence, the binding result in series [2] (10 uM formicamycin I (text prints 10 mM), binding abolished, formicamycin I inhibits 500 nM ForZ with IC50 2.48 uM) is listed as “no binding”. Further, the Kd in series [2] amounted to 46 nM. In the case of “TGGCACACGGGGGAGGGGACATCCCTCCTTCGGCAGAGCC / GGCTCTGCCGAAGGAGGGATGTCCCCTCCCCCGTGTGCCACCTACCCTACGTCCTCCTGC [pforHI/GF probe 10 (=22)]”, the binding result in series [1] is on record as “binds”.
